Strings that start with PEPTIDE1 are HELM notation: dots part the residues, brackets hold end groups and non-standard residues.
Experiment: general procedure: Fmoc solid-phase peptide synthesis; DIC/Oxyma Pure
Conditions: TFA salt; for isolated yield: whole synthesis; for conjugation yield: conjugation step

| Substance | isolated yield | conjugation yield | also measured |
| --- | --- | --- | --- |
| H-BPA-Ser-Gly-Ser-BPA-CONH2 | 34% yield |  |  |
| PEPTIDE1{[CAT].S.C.S.[CAT].[am]}$$$$V2.0 | 52% yield |  |  |
| H-Tyr-Ser-Cys-Ser-Tyr-CONH2 | 44% yield |  |  |
| Dylight488-BPA-Ser-Cys-Ser-BPA-CONH2 |  | 85% |  |
| Dylight488-BPA-Ser-Gly-Ser-BPA-CONH2 |  | 24% |  |
| H-BPA-Ser-Cys-Ser-BPA-CONH2 |  |  | isolated yield (run 1): 41% yield; isolated yield (run 2): 12% yield |
